Values quoted from earlier work, collected in patent publication US12521350B2, “Liquid crystalline dosage form for administering a statin” (CUBOPHARM PTY LTD, priority 2017, dated 2026).
For at least one compound, name, drawing or mass did not settle the structure.

Details: 10 mg, after 6 weeks therapy; cited from earlier work

In the case of CC[C@H](C)C(=O)O[C@H]1C[C@H](O)C=C2C=C[C@H](C)[C@H](CC[C@@H](O)C[C@@H](O)CC(=O)O)[C@H]21 [pravastatin], the “Reductions in LDL-C” value is listed as 20%.
